Experimental data taken from patent US20210030857A1.
No constants are given. Whether binding was seen depends on the method and setting. Some entries that bind do so weakly or less than the wild type.

The chains behind the UniProt entries cited, without tags or fusion partners. Where a name states a change or a piece, a line headed by the entry shows the natural chain unless it says otherwise.
UniProt Q86Z14: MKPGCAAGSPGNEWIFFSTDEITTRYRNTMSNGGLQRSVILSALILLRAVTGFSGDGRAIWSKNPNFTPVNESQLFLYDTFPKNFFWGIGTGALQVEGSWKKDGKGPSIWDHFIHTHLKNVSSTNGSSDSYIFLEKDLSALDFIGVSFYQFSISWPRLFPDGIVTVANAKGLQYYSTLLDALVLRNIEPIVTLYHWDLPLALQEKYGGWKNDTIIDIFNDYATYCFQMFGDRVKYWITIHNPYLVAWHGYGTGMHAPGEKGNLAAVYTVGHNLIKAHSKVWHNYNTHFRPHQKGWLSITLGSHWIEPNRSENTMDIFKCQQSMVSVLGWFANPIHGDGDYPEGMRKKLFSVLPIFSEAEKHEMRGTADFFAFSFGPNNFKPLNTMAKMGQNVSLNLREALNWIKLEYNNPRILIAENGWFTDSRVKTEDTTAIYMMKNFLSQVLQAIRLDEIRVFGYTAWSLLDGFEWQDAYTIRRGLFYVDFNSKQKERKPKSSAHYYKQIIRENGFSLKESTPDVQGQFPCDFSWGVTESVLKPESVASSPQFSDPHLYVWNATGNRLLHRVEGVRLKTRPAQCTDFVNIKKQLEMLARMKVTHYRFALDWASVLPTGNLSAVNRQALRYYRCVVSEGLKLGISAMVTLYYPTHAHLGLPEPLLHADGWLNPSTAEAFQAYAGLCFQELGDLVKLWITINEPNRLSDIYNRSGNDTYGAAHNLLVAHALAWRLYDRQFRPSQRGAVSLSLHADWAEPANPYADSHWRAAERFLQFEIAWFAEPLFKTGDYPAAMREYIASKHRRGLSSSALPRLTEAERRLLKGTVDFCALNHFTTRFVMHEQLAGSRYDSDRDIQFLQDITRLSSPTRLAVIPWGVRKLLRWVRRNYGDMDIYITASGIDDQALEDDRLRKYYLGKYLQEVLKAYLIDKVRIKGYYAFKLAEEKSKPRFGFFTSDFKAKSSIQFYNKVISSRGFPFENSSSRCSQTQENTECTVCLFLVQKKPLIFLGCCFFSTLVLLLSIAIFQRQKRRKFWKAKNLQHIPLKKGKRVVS

Legend:
[1] = biological target: human beta klotho expressed on cells (human) (UniProt Q86Z14); test: FACS on transfected Expi293 cells
[2] = biological target: human beta klotho protein (soluble, used in Biacore) (human) (UniProt Q86Z14); test: Biacore SPR, antibody captured on anti-mouse Fc, KLB as analyte (1.56-25 nM), 25 C; KD column

Binder	binding [1]	binding [2]
humanized 5H23 antibody (VH SEQ ID NO: 271 and VL SEQ ID NO: 276) (antibody, V domains shown) VH: QVQLQQSGAEVKKPGASVKVSCKASGYTFTSYDINWVRQAPGQGLEWIGWIYPGDGSTKYNEKFKGKATITRDTSASTAYMELSSLRSEDTAVYFCARSDYYGSRSFAYWGQGTLVTVSS VL: DIVMTQSPDSLAVSLGERATINCRASKSVSTSGYVYMHWYQQKPGQPPKLLIYLASYLESGVPDRFSGSGSGTDFTLTISSVQAEDVAVYYCQHSRDLTFPFGGGTKLEIK	binds	
antibody 5H23 (antibody, V domains shown) VH: QVQLQQSGPELVKPGALVKISCKASGYTFTSYDINWVKQRPGQGLEWIGWIYPGDGSTKYNEKFKGKATLTADKSSRTAYMQLSSLTSENSAVYFCARSDYYGSRSFAYWGQGTLVTVSA VL: DIVLTQSPASLAVSLGQRATISCRASKSVSTSGYVYMHWNQQKPGQPPKLLIYLASYLESGVPARFSGSGSGTDFTLNIHPVEEEDAAIYYCQHSRDLTFPFGGGTKLEIK		binds
